# Laboratory results as given in patent CN112538115A.
# Amino acid sequences for entries named in this document (tags omitted). Residues count along the entry.
# UniProt Q02223, residues 1-54: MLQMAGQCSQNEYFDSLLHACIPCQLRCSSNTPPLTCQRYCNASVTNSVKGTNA
# Results are given in words; binding and its absence hold for the method and conditions named. Some binding calls cover weakened binding; strength is not graded here.
# B1: BCMA Benchmark1 (antibody sequence of GSK2857916, Glaxo Smith Kline) (antibody, human IgG1, kappa, V domains shown)
# VH: QVQLVQSGAEVKKPGSSVKVSCKASGGTFSNYWMHWVRQAPGQGLEWMGATYRGHSDTYYNQKFKGRVTITADKSTSTAYMELSSLRSEDTAVYYCARGAIYDGYDVLDNWGQGTLVTVSS
# VL: DIQMTQSPSSLSASVGDRVTITCSASQDISNYLNWYQQKPGKAPKLLIYYTSNLHSGVPSRFSGSGSGTDFTLTISSLQPEDFATYYCQQYRKLPWTFGQGTKLEIKR
# Target: 人BCMA-His抗原 (ACRO, Cat#BCA-H522y) (human) (UniProt Q02223)
# Assay: indirect ELISA, human BCMA-His coated at 2 ug/ml, detection with HRP goat anti-human Fc gamma
binder,measurement,value
B1,binding,binds
